In PMC5098908 one finds binding data, which are given here for one substance.

Chains of the proteins cited; added tags and fusions are not shown. Residues count along the entry.
UniProt P25445, residues 26-335: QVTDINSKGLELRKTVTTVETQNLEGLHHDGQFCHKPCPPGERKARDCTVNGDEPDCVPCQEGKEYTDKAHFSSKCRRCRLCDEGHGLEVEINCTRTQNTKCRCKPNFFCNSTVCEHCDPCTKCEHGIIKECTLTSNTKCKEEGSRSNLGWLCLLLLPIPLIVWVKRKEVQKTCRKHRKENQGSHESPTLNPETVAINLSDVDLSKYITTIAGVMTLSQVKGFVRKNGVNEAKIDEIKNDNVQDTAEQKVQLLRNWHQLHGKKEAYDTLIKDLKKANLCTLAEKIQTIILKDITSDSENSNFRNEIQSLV

No constants are given. Whether binding was seen depends on the method and setting. Binding seen in cells or lysates may run through a third protein. Some results given as binding are weak or reduced against the parent protein; the word gives no strength.

This test addresses T1, integrin αL (human (endogenous in dHL60)) (UniProt P20701).
T1 sequence: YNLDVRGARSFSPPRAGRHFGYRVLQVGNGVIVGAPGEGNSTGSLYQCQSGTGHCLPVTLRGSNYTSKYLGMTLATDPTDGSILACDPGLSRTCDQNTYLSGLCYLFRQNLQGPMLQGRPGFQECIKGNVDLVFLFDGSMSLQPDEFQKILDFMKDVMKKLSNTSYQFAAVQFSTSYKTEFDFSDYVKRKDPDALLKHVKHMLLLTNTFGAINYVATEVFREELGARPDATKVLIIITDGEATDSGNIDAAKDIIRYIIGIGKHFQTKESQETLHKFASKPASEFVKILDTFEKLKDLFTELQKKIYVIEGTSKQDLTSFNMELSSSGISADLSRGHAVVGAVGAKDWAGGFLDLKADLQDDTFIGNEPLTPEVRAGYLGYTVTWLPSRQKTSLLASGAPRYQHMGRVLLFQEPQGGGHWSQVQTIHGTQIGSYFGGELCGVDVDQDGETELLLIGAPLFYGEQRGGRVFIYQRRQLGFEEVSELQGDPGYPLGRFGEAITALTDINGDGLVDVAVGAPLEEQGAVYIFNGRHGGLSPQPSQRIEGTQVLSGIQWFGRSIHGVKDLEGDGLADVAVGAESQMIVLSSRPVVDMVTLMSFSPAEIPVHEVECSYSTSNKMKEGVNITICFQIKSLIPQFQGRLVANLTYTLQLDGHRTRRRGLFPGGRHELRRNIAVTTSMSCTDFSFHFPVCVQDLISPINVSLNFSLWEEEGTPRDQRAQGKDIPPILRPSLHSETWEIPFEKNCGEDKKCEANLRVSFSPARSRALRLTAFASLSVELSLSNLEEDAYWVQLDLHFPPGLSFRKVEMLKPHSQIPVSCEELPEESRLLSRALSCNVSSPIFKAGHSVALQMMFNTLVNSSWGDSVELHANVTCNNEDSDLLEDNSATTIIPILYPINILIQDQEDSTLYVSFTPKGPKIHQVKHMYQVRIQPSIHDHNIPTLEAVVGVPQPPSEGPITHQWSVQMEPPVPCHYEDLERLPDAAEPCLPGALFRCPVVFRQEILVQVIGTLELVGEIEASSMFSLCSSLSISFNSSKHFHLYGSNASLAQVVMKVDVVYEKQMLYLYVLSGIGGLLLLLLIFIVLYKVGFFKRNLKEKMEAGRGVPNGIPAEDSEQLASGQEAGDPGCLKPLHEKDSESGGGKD
Kind of test: proximity ligation; dHL60 cells, control or planted in CD95L-precoated chamber for 10 min at 37°C, fixed with 2% PFA, stained with anti-CD11a (EP1285Y) and anti-CD95 (APO-1-1); Duolink kit.

For the substance “CD95 (from UniProt P25445 26-335) (receptor)”, the binding entry was “binds”.
